Measured values reported in PubChem BioAssay AID2685 (National Center for Advancing Translational Sciences (NCATS), 2010).
In all, about 320,000 compounds went through this assay and about 2,100 (0.66%) were called active. The inconclusive results got no clear call from the source; some entries with a clear call stand among them for comparison. The call rests on the fitted dose curve; in most records, active means well fitted inhibition curve with a large enough effect in the signal ratio, with a control signal flat (not every such curve was filed as active); inconclusive means small, poorly fitted or top-dose-only effect, or effect the other way, or a change in a side signal; inactive means flat fitted curve, though single readings scatter; the % refers to the signal ratio. A potency beside an inconclusive call is a rough fit, not a confirmed value.

assay: qHTS Assay for Lipid Storage Modulators in Drosophila S3 Cells; conditions: BODIPY lipid droplet fluorescence, 18-24 h, cells fed with added oleic acid; lipid storage change, negative = inhibition: at 46.1 µM (top of the series) unless noted
Method in brief: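 Drosophila S3 cells loaded with oleic acid (400 uM, as added) and compounds at several concentrations; lipid droplets imaged by 488-nm laser-scanning cytometry, 500–530 nm intensity and object ratio to cell channel. Percent activity normalized to 20 uM Triacsin C.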
On the % scale 0 is the no-effect control and ±100 the full control effect; potency means the concentration at half of the fitted maximal effect.

SMILES	Potency	lipid storage change, negative = inhibition
O=C(CSc1cc(Cl)ccc1Cl)NC1CC1	inconclusive: 18.4 µM [activator, partial curve, poor fit]	
COc1ccccc1/C=C/CN1CCSCC1		inconclusive: -15.9%
COc1cccc(/C=N/Nc2nc(-c3cccnc3)nc3ccccc23)c1		inconclusive: 7.26%
CNc1ccc(Br)cc(C(=O)/C=C/c2cccc(OC)c2OC)c1=O	inconclusive: 20.6 µM [falling, single point]	
CCN(CC)c1ccc(/C=N/NC(=S)NCc2ccco2)cc1	inconclusive: 6.51 µM [activator, partial curve, poor fit]	
COc1ccc(NC2CCCN(C(=O)CCc3ccccc3F)C2)cc1 (stereo not drawn)	inconclusive: 0.731 µM [activator, full curve]	
Cc1cc(=O)oc2c(C)c(OCC(=O)N3CC[C@@]4(O)CCCC[C@H]4C3)ccc12	active: 16.4 µM	
CC(=O)Nc1ccccc1N(CC(O)Cn1c2ccccc2c2ccccc21)S(=O)(=O)c1ccc(C)cc1 (stereo not drawn)		inconclusive: 18.4%
O=C(Nc1ccccc1)N1CCn2c1nc1ccccc12		inconclusive: 9.36%
COc1cccc(-n2c(SCC(=O)Nc3nc4ccccc4s3)nc3ccccc3c2=O)c1		inconclusive: 8.88%
COc1ccc(/C=N/N2C(=O)CN(C(=O)c3ccccc3)C2c2ccc(OC)cc2)cc1 (stereo not drawn)		inconclusive: 2.64%
CCc1nnc(NS(=O)(=O)c2ccc(NC(=O)Nc3ccc(OC)cc3)cc2)s1		inconclusive: 17.9%
O=C(O)c1ccc(Cl)cc1Nc1nc2cc(Cl)ccc2o1		inconclusive: 9.48%
O=C(NCC1CCCO1)c1ccc2c(=O)n(Cc3ccco3)c(SCC(=O)N3CCCC3)nc2c1 (stereo not drawn)		inconclusive: -11.7%
O=C(COC(=O)c1ccc(S(=O)(=O)N2CCCC2)cc1)Nc1ccccc1		inconclusive: -25.3%
O=C(Nc1cccc(NC(=O)c2ccccc2)n1)c1ccccc1		inconclusive: -34.3%
CC(Sc1ncccn1)C(=O)NC1CCCC1 (stereo not drawn)	inconclusive: 14.6 µM [activator, single point]	
CCN(CC)S(=O)(=O)c1cc(C(=O)Nc2cc(C)on2)c(Cl)cc1Cl		inactive: -12%
O=C(Nc1ccc2snnc2c1)N1CCN(c2ccccc2)CC1		inconclusive: 2.02%
CC(CC(=O)N1CCN(C(=O)c2ccccc2)CC1)c1ccccc1 (stereo not drawn)	inconclusive: 3.26 µM [activator, single point]	
O=C(COc1ccc(S(=O)(=O)N2CCOCC2)cc1Cl)NCCCn1ccnc1		inconclusive: 34.5%
CC(=O)NC(Cc1ccc(F)cc1)C(=O)NC1CCN(C(=O)Nc2ccccc2C)CC1 (stereo not drawn)	inconclusive: 11.6 µM [activator, single point]	
CN(C1CC(C)(C)N(O)C(C)(C)C1)S(=O)(=O)CC12CCC(CC1=O)C2(C)C (stereo not drawn)		inconclusive: 34.7%
Cc1cccc(OCc2nnc(SCC(=O)NC3CCCC3)n2C)c1		inconclusive: 269%

SMILES	Potency	lipid storage change, negative = inhibition
CCn1cc(C(=O)N[C@@H](CCSC)C(=O)NC(C)(C)CO)c(=O)c2cc3c(cc21)OCO3		inconclusive: 4.48%
COCC(=O)N1CCC(n2nnc3cc(C(F)(F)F)ccc32)CC1		inconclusive: 35.9%
CCc1ccc(N(CC)c2ncnc3nc[nH]c23)cc1		inconclusive: -20.9%
CCOc1ccc(CCNC(=O)C(CCC(N)=O)NC(=O)OCc2ccccc2)cc1OCC (stereo not drawn)		inconclusive: 0.936%
CCC(=O)Nc1ccccc1C(=O)N1CCN(Cc2ccccc2)CC1	inconclusive: 0.731 µM [falling, single point]	
CN(CC(=O)Nc1cccc(S(=O)(=O)N(C)C)c1)Cc1ccccc1		inconclusive: -170%
Cc1cccc(N2CCN(C(=O)c3ccccc3NC(=O)C3CCCCC3C(=O)O)CC2)c1 (stereo not drawn)		inconclusive: -8.07%
CC(=O)c1ccc(-n2c(-c3cc(-c4ccco4)[nH]n3)n[nH]c2=S)cc1		inconclusive: -7.14%
O=C(NC1CCN(C(=O)NC2CCCCC2)CC1)c1cccc(F)c1		inconclusive: 232%
NC(=O)c1c(NC(=O)Cn2nc(C(=O)O)c3ccccc3c2=O)sc2c1CCCC2	inconclusive: 29.1 µM [falling, single point]	
COc1cccc(Oc2cc(NN3CCCCC3)c([N+](=O)[O-])cc2[N+](=O)[O-])c1OC	inconclusive: 0.58 µM [activator, single point]	
CC(=O)c1ccc(Nc2c3c(nc4ccccc24)CCCC3)cc1	inconclusive: 6.51 µM [activator, single point]	
NC(=O)c1cc([N+](=O)[O-])ccc1NCCc1ccccc1		inconclusive: -0.0711%
COc1ccc(CC(=O)N(Cc2cc3cc(OC)ccc3[nH]c2=O)C(C)C)cc1		inconclusive: 50.3%
COc1ccc(/C=N/N(Cc2ccccc2)c2ccccc2)cc1O		inconclusive: -11%
Cc1nn(-c2cccc(C(F)(F)F)c2)c(Cl)c1/C=N/Nc1cccc(C(=O)O)c1		inconclusive: -10.9%
COc1ccc(C2=NN(C(=O)CN3CCCC3)C(c3ccc(OC)cc3)C2)cc1 (stereo not drawn)		inconclusive: 12.9%
CC1NC(=O)NC1CCCCC(=O)O (stereo not drawn)	inconclusive: 0.0046 µM [falling, full curve, poor fit]	
c1ccc2c(c1)CCCC2C1=NCCN1 (stereo not drawn)		inconclusive: -2.73%
Cc1onc(-c2ccccc2)c1C(=O)Nc1nc2c(s1)CCCC2		inconclusive: 33.3%
CCCCNC(=O)CCSc1ccc(C)cc1	inconclusive: 25.9 µM [activator, partial curve, poor fit]	
CC(C)C(C(=O)NCc1ccccc1)N(CC1CCCO1)C(=O)CNS(=O)(=O)c1ccccc1 (stereo not drawn)	inconclusive: 29.1 µM [activator, partial curve, poor fit]	
Cc1ccc(S(=O)(=O)Nc2nc(C)cc(NCCN)n2)cc1	inconclusive: 29.1 µM [falling, single point]	
COC(=O)C1=C(CSc2nncn2C)NC(=O)NC1c1ccc(F)cc1 (stereo not drawn)		inconclusive: -23.8%

As a working copy, part of the list above:
SMILES	Potency	lipid storage change, negative = inhibition
O=C(Nc1cccc(NC(=O)c2ccccc2)n1)c1ccccc1		inconclusive: -34.3%
CC(Sc1ncccn1)C(=O)NC1CCCC1 (stereo not drawn)	inconclusive: 14.6 µM [activator, single point]	
CCN(CC)S(=O)(=O)c1cc(C(=O)Nc2cc(C)on2)c(Cl)cc1Cl		inactive: -12%
O=C(Nc1ccc2snnc2c1)N1CCN(c2ccccc2)CC1		inconclusive: 2.02%
